These are yes or no findings as the source states them, for the method shown. Binding seen in cells or lysates may run through a third protein. Binding calls can cover weak binding; strength is not graded here. Sequences can lack the tags named with a protein.
Molecular target: mCherry-hRab7a-His (human)
Experiment: co-IP; HEK293 cells overexpressing the tagged proteins; Co-IP lysis buffer (50 mM Tris-HCl, 5 mM EDTA, 150 mM NaCl, 0.5% Nonidet-P40, 10% glycerol, pH 7.4); M2-Flag, anti-His or anti-Myc beads overnight at 4°C; western blot; for Coro1a with Rab7a also with Trim4 siRNA and 100 nM MLN4924 for 12 h

B1: mCherry-hCoro1a-K233R-Flag (protein, UniProt P31146 1-461)
chain: MSRQVVRSSKFRHVFGQPAKADQCYEDVRVSQTTWDSGFCAVNPKFVALICEASGGGAFLVLPLGKTGRVDKNAPTVCGHTAPVLDIAWCPHNDNVIASGSEDCTVMVWEIPDGGLMLPLREPVVTLEGHTKRVGIVAWHTTAQNVLLSAGCDNVIMVWDVGTGAAMLTLGPEVHPDTIYSVDWSRDGGLICTSCRDKRVRIIEPRKGTVVAEKDRPHEGTRPVRAVFVSEGRILTTGFSRMSERQVALWDTKHLEEPLSLQELDTSSGVLLPFFDPDTNIVYLCGKGDSSIRYFEITSEAPFLHYLSMFSSKESQRGMGYMPKRGLEVNKCEIARFYKLHERRCEPIAMTVPRKSDLFQEDLYPPTAGPDPALTAEEWLGGRDAGPLLISLKDGYVPPKSRELRVNRGLDTGRRRAAPEASGTPSSDAVSRLEEEMRKLQATVQELQKRLDRLEETVQAK
binding: binds weakly

Source: paper PMC8500273
